Laboratory results published in the supplement of paper PMC3334620.
In all, about 33,000 sequences were measured (“E-score (-0.5 to 0.5)”: median about -8e-05, highest 2% from about 0.23 on). Some of the results follow.

These sequences were tested against T1, Nrg2 (UniProt P38082) (assay: PBM E-score (8-mer binding enrichment) (E-score (-0.5 to 0.5)); higher = stronger / more preferred TF binding). Settings: protein concentration: 100 nM; construct: GST-full length.
T1 sequence: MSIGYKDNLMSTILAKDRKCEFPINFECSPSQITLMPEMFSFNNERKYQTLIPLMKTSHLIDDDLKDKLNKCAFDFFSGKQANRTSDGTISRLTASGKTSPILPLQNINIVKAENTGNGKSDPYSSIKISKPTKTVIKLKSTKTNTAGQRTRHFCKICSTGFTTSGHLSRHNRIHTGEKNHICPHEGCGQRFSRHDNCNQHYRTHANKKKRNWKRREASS
How it was run: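 PURExpress in vitro transcription/translation supplied GST-tagged yeast transcription factors, either full-length or DNA-binding domain. Applied at about 100-200 nM to universal all-10-mer Agilent arrays double-stranded by primer extension, the bound protein was detected with fluorescent anti-GST. E-scores, modified Wilcoxon-Mann-Whitney statistics, were given by the Universal PBM Analysis Suite to ungapped eight-base words pooled with their reverse complements after masliner normalisation.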

| Sequence | PBM E-score |
| --- | --- |
| GGCCGAGA | 0.116 |
| GTTACTGA | 0.04 |
| CAACACAG | 0.095 |
| GGCGTTGA | -0.088 |
| AACGCGTA | 0.1 |
| AGAACACG | 0.17 |
| CAACCTAC | 0.0371 |
| AAGTAGGG | 0.181 |
| AGGGCCGG | -0.0282 |
| AACTGGGC | -0.18 |
| AACTTTTC | 0.0712 |
| GGGACGCA | -0.116 |
| AACATCCC | 0.0746 |
| ACGAGAAT | 0.0822 |
| CAGTATTA | 0.244 |
| CTATCCCC | -0.288 |
| CGCACTAG | 0.00674 |
| AATTGACC | 0.051 |
| AGGTTCCC | -0.135 |
| CAGGACGA | 0.0583 |
| CGCTCTAG | -0.298 |
| AAACTGCA | -0.0357 |
| AGAGCTAT | -0.245 |
| ACCGGAAG | 0.0367 |
| GTCTACAC | -0.0646 |

Fetched one by one from above, six records:

| Sequence | PBM E-score |
| --- | --- |
| CGCACTAG | 0.00674 |
| AACTGGGC | -0.18 |
| AGGGCCGG | -0.0282 |
| GGGACGCA | -0.116 |
| GGCGTTGA | -0.088 |
| AGGTTCCC | -0.135 |

Following part.

| Sequence | PBM E-score |
| --- | --- |
| CATCCCTA | 0.0926 |
| CCTACTGC | -0.0675 |
| AACTAACA | 0.131 |
| GTCAGTAA | -0.0564 |
| AATATCCG | 0.101 |
| AACCACTC | 0.0139 |
| AGTAACCA | 0.0286 |
| AAGCATCT | -0.0437 |
| CGAGCGAC | -0.0894 |
| CCCTATCA | 0.0672 |
| ACCTATGA | -0.169 |
| ACAATTGT | 0.113 |
| CCCCTCAA | 0.103 |
| AAGGTGTG | 0.045 |
| GGGCTTAC | -0.0704 |
| ACAGGGCT | -0.0411 |
| GTACCCCA | -0.00269 |
| CTACGTCC | -0.121 |
| ACATTACC | -0.104 |
| ATTTAAGA | -0.0351 |
| ACGTAGCC | -0.314 |
| ATTAGCCA | 0.0757 |
| CCGGGGAC | -0.0685 |
| GTCTATCA | -0.0454 |
| ACATGATA | 0.125 |

| Sequence | PBM E-score |
| --- | --- |
| ACAGGAAA | 0.141 |
| ACCTCGAA | -0.00777 |
| GCTGTTCA | -0.0958 |
| GAATACAC | -0.0524 |
| ACAGAATA | 0.148 |
| TAGGACAA | 0.049 |
| GCAAGTGA | -0.0727 |
| AGGTTACA | -0.0315 |
| CCCGTGGC | -0.196 |
| AATCCAAA | -0.0293 |
| GCCACCTA | -0.0704 |
| CATGGGCA | 0.0918 |
| GTGCAGCA | -0.172 |
| AATTCACG | -0.00202 |
| ACACGTAC | -0.0321 |
| AGAGGCGA | -0.0974 |
| CAACGGTC | 0.0208 |
| AGAGGCAA | 0.0182 |
| ACCTTCTA | -0.0686 |
| GCCCCATA | 0.106 |
| GGAGGCCA | -0.116 |
| GAGCAATC | -0.0279 |
| AGTGCTCG | -0.0208 |
| CCTACGCG | -0.0425 |
| GCTAGGAA | 0.0218 |

Exported in CSV form: part of the list above.
Sequence,PBM E-score
AAGTAGGG,0.181
GAGCAATC,-0.0279

(further entries)

| Sequence | PBM E-score |
| --- | --- |
| CCAACAGA | 0.0183 |
| CAGAAAAA | 0.0239 |
| CACCTACC | -0.151 |
| GGGCTAAA | 0.0105 |
| ATCTCGAG | 0.0834 |
| CATTCTAG | -0.137 |
| ACACCGCT | -0.0814 |
| CGGGTTTA | 0.104 |
| AGCGGGGA | -0.194 |
| ACGACCAA | -0.12 |
| CTCGTGAC | -0.0993 |
| CCTGGCCG | 0.0485 |
| ACACTTCG | 0.113 |
| CACAGAGG | -0.0103 |
| GGACCTAC | -0.0192 |
| CCTATGCA | -0.0321 |
| AAATTTCT | -0.0155 |
| AGGTAATG | 0.0021 |
| GCTTGGAA | 0.0177 |
| AATTTAAA | 0.142 |
| GACCACGC | -0.0928 |
| CCACACGC | 0.0944 |
| TCTCGCCA | 0.013 |
| CGTTGTTC | 0.0424 |
| CAAGTAAA | -0.0616 |

| Sequence | PBM E-score |
| --- | --- |
| CGTGCTAC | -0.207 |
| ACCTGGTC | 0.135 |
| CTGGTAGA | -0.098 |
| ACAATTTC | 0.0969 |
| CATTCGGA | 0.0301 |
| CCATCCAA | -0.0545 |
| CGGGGTAA | -0.0761 |
| ATCTGCCG | 0.008 |
| CTCTGTAA | -0.215 |
| GCTTCCGA | 0.0136 |
| ATATGGTG | 0.0491 |
| CCAACTTC | -0.105 |
| GACCAGTA | -0.174 |
| GTGAATTA | 0.151 |
| ACCCCCAG | -0.291 |
| AGCTTCCA | 0.0217 |
| CTTAGAGC | -0.00176 |
| ACAGAGGT | 0.0138 |
| AGCGATAA | 0.0305 |
| GGGTGGTA | -0.0955 |
| CGTTGAAC | -0.141 |
| CGTAACAC | -0.0425 |
| ACAGGCCT | -0.155 |
| GACACCTC | 0.0684 |
| CACTCTTA | 0.0792 |

| Sequence | PBM E-score |
| --- | --- |
| CTTGAAAC | 0.0294 |
| ACTCCAGA | -0.0958 |
| GCGTGTCA | 0.0683 |
| GCCCGGGC | 0.0278 |
| ACTAGTAG | 0.0854 |
| AGAACGAT | 0.103 |
| CTTCGACA | -0.0858 |
| ATGCGCAC | 0.142 |
| CGGAATAC | 0.133 |
| CATCCTAG | -0.0406 |
| AGGAAGAG | -0.233 |
| ATCGTACA | 0.0896 |
| AGGTCTCA | 0.0451 |
| ACACTCTA | 0.0203 |
| TACTAAAA | 0.0854 |
| TCCTCACA | -0.0328 |
| ACGGAGAG | -0.0646 |
| ACCCGTCT | -0.0804 |
| AAATGTCA | -0.119 |
| GAGAGTGA | 0.133 |
| CCGAACGA | 0.0912 |
| GGGAAACA | 0.0372 |
| ATTTTTTA | 0.0804 |
| AATGTATG | 0.0522 |
| AGCCCGCG | -0.161 |

| Sequence | PBM E-score |
| --- | --- |
| TGTCGGAA | -0.0691 |
| GATCGCCA | -0.00362 |
| GACCGGAA | -0.033 |
| CATCCATG | -0.0336 |
| CAAACGAC | 0.161 |
| AGGGCGAA | -0.0411 |
| AAAGCGTG | -0.0834 |
| CCTGAGGC | -0.192 |
| CCAGCCCA | -0.283 |
| AACGGGGA | 0.108 |
| GCCAAGGA | -0.0732 |
| CGCTTTAC | -0.026 |
| CGTGTTTA | -0.013 |
| CGCGGACA | 0.108 |
| GCCTGCGA | -0.107 |
| AATGAACT | 0.149 |
| TCATCCAA | 0.106 |
| GCAATTGA | 0.118 |
| CTGTTAGC | -0.0913 |
| GCGGGAGA | -0.0486 |
| ACTAAATC | 0.153 |
| CACACGGC | -0.0233 |

Individual results from the entries so far:
GCGGGAGA – PBM E-score: -0.0486
GATCGCCA – PBM E-score: -0.00362
